# In the supplement of paper PMC5949888:
# Most values lie at the floor of the assay. Slopes are relative: functional sequences can read slightly below zero.
# Test system: Saccharomyces cerevisiae PS128 hsf1 delta, HSF1(1-493) fusion
# Assay: growth estimate (transactivation domain function in HSF1 fusion, heat-shock survival) (a.u. (slope of normalised read count over time)); higher = stronger growth at 37°C, i.e. more transactivation activity
# Conditions: library: random library
row,Substance,growth estimate
1,MHGAQGSIISYILITLATLI,-0.25
2,MHGVYYTVQTYAISIVCYNL,< -0.25
3,MHHDVFETPRIHEFGVVTPT,< -0.25
4,MHIRFMDRRDYVELCNRGVY,< -0.25
5,MHIVSKWETCTVLTVIIQCT,< -0.25
6,MHSAPLVGSKRIYPHLRIVR,< -0.25
7,MIAAAQWVVVVTGFVGIGT,< -0.25
8,MICTV,< -0.25
9,MIDRHRCLGKGR,< -0.25
10,MIERIGGNEGLQVIKLVYDG,< -0.25
11,MIITAVTSGAAPSGSSKRHR,< -0.25
12,MILRHSCPFNTMRPTDPPRR,< -0.25
13,MILSCR,< -0.25
14,MIMMLMVYRIPCGPIILPRG,-0.243
15,MIRKACGKRLEPRVSAVHKR,< -0.25
16,MIRNVRLYRQLERY,< -0.25
17,MIRYSERLHGRAQSRGSY,< -0.25
18,MISGRAFDMLSSAVRDGPVY,< -0.25
19,MIYS,< -0.25
20,MKDIKAATIAGCRSGAPKSG,< -0.25
21,MKELTPFV,-0.161
22,MKFH,< -0.25
23,MKSG,< -0.25
24,MLCPRLRIEIGSISRSLTAR,< -0.25
25,MLDGARAHATNVSNWGSARV,< -0.25

row,Substance,growth estimate
1,MLGSRFGPVGVHV,< -0.25
2,MLHISVSLLWGS,< -0.25
3,MLLPIGLALPRDASGE,< -0.25
4,MLLPNRVSWHLPVHRA,< -0.25
5,MLLPRSPRGGRGS,< -0.25
6,MLNGESSSVASVVKP,< -0.25
7,MLRDRRCPV,< -0.25
8,MLRISMFCTLCSGPLPFGFP,< -0.25
9,MLSHGTAQDV,< -0.25
10,MLSPRCKSSYLRRLVESSHA,-0.246
11,MLVYLSKDWKLNTFGFRMPR,< -0.25
12,MMFW,-0.107
13,MMGRSTLSRHARTKPPSHRF,< -0.25
14,MMSAHH,< -0.25
15,MNHNGLISRFTGKI,< -0.25
16,MNPSSDGTSDCYYGYKGSRP,< -0.25
17,MNS,< -0.25
18,MNSKTRLLAKKLTNVPESPC,< -0.25
19,MNTCSTGPPLVFSPAESVVK,< -0.25
20,MPALLQDRYLPQPTIGSMIG,< -0.25
21,MPCPLTATTSTGLGTPTVAQ,< -0.25
22,MPFICSGYVI,< -0.25
23,MPGELERSACMLHTHWSPGA,< -0.25
24,MPGQLLRGRALSQPRKAGFY,< -0.25
25,MPGRSTAGSY,< -0.25

# Look-ups from the list.
# Entry of MLVYLSKDWKLNTFGFRMPR under growth estimate: < -0.25
# Entry of MNHNGLISRFTGKI under growth estimate: < -0.25

# (listing goes on)

row,Substance,growth estimate
1,MPLSYQSWEATGAVRLRGII,< -0.25
2,MPRCF,< -0.25
3,MPSGMCWSL,< -0.25
4,MPVDPILKKHRF,< -0.25
5,MQALGDPGAGRSQRYNRRRV,< -0.25
6,MQESVHIETFICEEL,< -0.25
7,MQHELHTELPIVKGTSGRYV,< -0.25
8,MQTNGK,< -0.25
9,MRCGR,-0.243
10,MRFIAVDGHCVVITSHGVPQ,< -0.25
11,MRGLGPRSRGPGKFTLRGHL,-0.245
12,MRKCILLGLSFWCHPSH,< -0.25
13,MRKHTFLGGDPLLVS,< -0.25
14,MRLIRGGSHHQ,< -0.25
15,MRNRTHDAGHVSSHGHD,< -0.25
16,MRPCPRGSAADGIGAERRSH,< -0.25
17,MRRAPWSAPHEASAQGNCYY,< -0.25
18,MRRLAHEVARRMNRSVAQLR,< -0.25
19,MRRSFAVCFLALDTRRGPSR,< -0.25
20,MRVGDQGYRPLLRPKNRMTS,< -0.25
21,MRVRRRTAL,< -0.25
22,MSAKRIAVRISRVLGFQLAV,< -0.25
23,MSERSKRTVL,< -0.25
24,MSGRSMWVFFLGLGVRFATS,< -0.25
25,MSGTTP,< -0.25

row,Substance,growth estimate
1,MSKSTPGQ,-0.238
2,MSLGVRRRRETGSGRSRC,< -0.25
3,MSLSIVLEPRG,< -0.25
4,MSPVTLARISLESGREILKG,< -0.25
5,MSRDVPGIACTTEWPSHGCR,< -0.25
6,MSRF,< -0.25
7,MSSTLGVGLKTLYGNCRLHW,< -0.25
8,MSTGLGCFVAASGGLYGGPN,< -0.25
9,MSVMSGRICTLNEQPARNPL,< -0.25
10,MTIVERVRLAPSSTRGHPVI,< -0.25
11,MTLLLAATPRSEETAPMQSL,< -0.25
12,MTQQYTLLFSDSLIE,< -0.25
13,MTRDLGAGTGRMSAK,< -0.25
14,MTRRPGARVYKRLGV,< -0.25
15,MTSSRSCPC,< -0.25
16,MVCSIVHWSTYVCTEVALES,< -0.25
17,MVGPSGLNTKFAGAS,< -0.25
18,MVGVPI,< -0.25
19,MVLHYSIPSSE,< -0.25
20,MVLSGSLARVVSRSVGLSAL,-0.219
21,MVPDPTL,< -0.25
22,MVPVSC,< -0.25
23,MVRATCRLPFLGRRIAGHSK,< -0.25
24,MVRMAHATSD,< -0.25
25,MVSGSNVCLSCIWSIINWPS,< -0.25

# A second format for some results above.
row	Substance	growth estimate
5	MHIVSKWETCTVLTVIIQCT	< -0.25
9	MIDRHRCLGKGR	< -0.25
25	MLDGARAHATNVSNWGSARV	< -0.25
24	MSGRSMWVFFLGLGVRFATS	< -0.25
25	MSGTTP	< -0.25
6	MSRF	< -0.25

# More records.

row,Substance,growth estimate
1,MVSPPFRGGFSGRSPLRTAY,< -0.25
2,MVVS,< -0.25
3,MVWS,< -0.25
4,MWWQVSESS,< -0.25
5,MYESERAWRLRMAVNPRPS,< -0.25
6,MYISGDG,< -0.25
7,NAFKMAIILHAFPRNRTCSA,< -0.25
8,NAFPG,< -0.25
9,NAFRRWSR,< -0.25
10,NAGMNLSQFSRSGVKVPVQR,< -0.25
11,NAGV,< -0.25
12,NAGYYGARLPSSCASHLHRP,< -0.25
13,NAQAYGHVC,< -0.25
14,NARGFNYRGGARLPYKRVCS,< -0.25
15,NASGLVLNTQMIMAAMWKCC,< -0.25
16,NASQRKSREFRSCAG,< -0.25
17,NAT,< -0.25
18,NATGSTRGIKDLEGCQTCRK,< -0.25
19,NATTGRCKMV,< -0.25
20,NAVPACTPDINLGHPARGRT,< -0.25
21,NCARAGRDHMKR,< -0.25
22,NCCELWNRNFRHLLLRL,< -0.25
23,NCERLLARVQTVG,< -0.25
24,NCGTVSESRPRKILSRISHN,< -0.25
25,NCHHVVLQSAWVGPGIGVNR,< -0.25

row,Substance,growth estimate
1,NCKGAPQTF,< -0.25
2,NCRHEPS,< -0.25
3,NCSQLTACRSLPAVNLTAWR,< -0.25
4,NCSSLND,< -0.25
5,NCVGLPDGPDDLPGESGNPA,< -0.25
6,NDGHANTPRSTPVMLCA,< -0.25
7,NDKY,< -0.25
8,NDRLIIRTGPLYRSMQSGWT,-0.229
9,NEAHLPNPADSCGETAISRE,< -0.25
10,NEFWRPSPGIWGKELSSTST,< -0.25
11,NEG,< -0.25
12,NEGCQGW,< -0.25
13,NEGRYRTRRHAP,< -0.25
14,NEHFKTFTRGLRMHKEVDPI,< -0.25
15,NEISLGLSGRTGPLKSS,< -0.25
16,NELFLDAIGTAGHGLVSLVG,< -0.25
17,NEPVRGLALLPAGYVVAPGA,< -0.25
18,NERERALYGEKETSILAGEV,< -0.25
19,NERRTVDPI,< -0.25
20,NESTGT,< -0.25
21,NEVGASQGHNVHYTRI,< -0.25
22,NEVSQHTDYYRTLNITLCGA,< -0.25
23,NEYIISWLQRSVDLG,< -0.25
24,NFEGMSLVVGGAAPLQ,< -0.25
25,NFGGLISSRK,< -0.25

row,Substance,growth estimate
1,NFHTNNSSCTCSHLLIGAME,< -0.25
2,NFIYSHTGATSHAVEIITSW,< -0.25
3,NFLNKDGH,< -0.25
4,NFNVTNRVLPRASVWVITRT,< -0.25
5,NFQDS,0.0543
6,NFRAALAGERWYSCAGDPC,< -0.25
7,NFY,< -0.25
8,NGDW,-0.158
9,NGGGPAPSLMQGRSTYLHQS,< -0.25
10,NGHTTHYGIRLLLRQATPRV,< -0.25
11,NGIEVSASPLQGCAVVQPLG,< -0.25
12,NGKCWA,< -0.25
13,NGKGEAASATTT,< -0.25
14,NGKLG,< -0.25
15,NGMSCGYWDTGTGRCRQHGL,< -0.25
16,NGNLLVAAKGRRAQGTILQS,< -0.25
17,NGQTKLTCYQPVRPVCCFPL,< -0.25
18,NGRVREGKRGIWS,< -0.25
19,NGSIDFLGSTDVRKRRQLGG,< -0.25
20,NGSMYTASGCEHHKGSSNCS,< -0.25
21,NGTVIPRD,< -0.25
22,NGVCIDRNKPVSGSICCGRE,< -0.25
23,NGVWGRGL,< -0.25
24,NGWGAACSATDSVSAVYLYS,< -0.25
25,NGYTPSAPHKT,< -0.25

row,Substance,growth estimate
1,NHGTKKERRAGINTYLPQNG,-0.231
2,NHL,< -0.25
3,NHLVQNCSQSDIPLFGLNLS,< -0.25
4,NHPRRAHSIKKLSGYGHALI,< -0.25
5,NHRDHNLGSHIDRPVHLCAS,< -0.25
6,NHSTGYVKGGFRS,< -0.25
7,NHTCS,< -0.25
8,NHWSSPSTQSW,< -0.25
9,NIDSRARLLSMQ,< -0.25
10,NIEYVARASRA,< -0.25
11,NIGGRGGTGASTSVDFPRPY,< -0.25
12,NIGLLGPGEWYMPRAFRAAL,< -0.25
13,NIIQIWV,-0.112
14,NIK,< -0.25
15,NIKTYSRLSRDYTRKGIHES,< -0.25
16,NILA,< -0.25
17,NILPPIEQARRSLGHNI,-0.231
18,NINTPASTRPERAD,< -0.25
19,NIP,< -0.25
20,NIPWVYSQDPPISMHHSAII,< -0.25
21,NIQFHYPSSAQVRCWITNQT,< -0.25
22,NIRPVSSARA,< -0.25
23,NIRQALGWGETTGGSKE,< -0.25
24,NIRSKGLRLTVRRSANAGHR,-0.246

# Shown tab-delimited: entries from further up
row	Substance	growth estimate
17	MIRYSERLHGRAQSRGSY	< -0.25
22	MPFICSGYVI	< -0.25
4	MWWQVSESS	< -0.25
15	NASGLVLNTQMIMAAMWKCC	< -0.25
18	NATGSTRGIKDLEGCQTCRK	< -0.25
3	NHLVQNCSQSDIPLFGLNLS	< -0.25
